# Data published in the supplement of paper PMC10032668.
# The chains behind the UniProt entries cited, without tags or fusion partners.
# EIF1, P41567, UniProt P41567, whole entry: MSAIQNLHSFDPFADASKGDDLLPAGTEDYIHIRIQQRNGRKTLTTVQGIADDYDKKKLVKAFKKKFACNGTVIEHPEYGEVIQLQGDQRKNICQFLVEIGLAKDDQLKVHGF
# HAX1, O00165, UniProt O00165, whole entry: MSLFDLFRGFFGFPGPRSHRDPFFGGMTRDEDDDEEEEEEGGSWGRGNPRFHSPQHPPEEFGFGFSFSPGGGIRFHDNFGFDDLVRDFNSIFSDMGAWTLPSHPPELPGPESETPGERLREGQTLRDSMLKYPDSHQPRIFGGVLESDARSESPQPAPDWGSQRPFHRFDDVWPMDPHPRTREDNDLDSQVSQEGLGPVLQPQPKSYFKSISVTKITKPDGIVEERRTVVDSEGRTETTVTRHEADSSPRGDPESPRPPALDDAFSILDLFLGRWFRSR
# PPP2R5D, Q14738, UniProt Q14738, whole entry: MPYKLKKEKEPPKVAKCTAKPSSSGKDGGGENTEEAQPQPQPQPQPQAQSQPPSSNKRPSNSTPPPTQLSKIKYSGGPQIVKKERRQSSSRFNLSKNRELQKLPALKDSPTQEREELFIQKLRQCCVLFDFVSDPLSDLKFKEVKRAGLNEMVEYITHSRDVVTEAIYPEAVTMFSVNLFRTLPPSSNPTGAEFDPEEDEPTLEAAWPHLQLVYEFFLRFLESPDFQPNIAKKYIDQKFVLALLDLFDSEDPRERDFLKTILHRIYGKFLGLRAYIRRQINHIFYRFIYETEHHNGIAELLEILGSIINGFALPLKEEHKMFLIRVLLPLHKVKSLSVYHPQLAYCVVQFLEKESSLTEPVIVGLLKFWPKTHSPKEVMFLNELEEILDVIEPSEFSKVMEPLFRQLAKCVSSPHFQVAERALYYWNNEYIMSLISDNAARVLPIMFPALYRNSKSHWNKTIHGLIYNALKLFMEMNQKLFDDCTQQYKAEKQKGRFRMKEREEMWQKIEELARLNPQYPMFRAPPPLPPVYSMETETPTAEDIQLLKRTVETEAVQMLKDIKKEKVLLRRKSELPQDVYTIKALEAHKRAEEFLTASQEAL
# GSPT2, Q8IYD1, UniProt Q8IYD1, whole entry: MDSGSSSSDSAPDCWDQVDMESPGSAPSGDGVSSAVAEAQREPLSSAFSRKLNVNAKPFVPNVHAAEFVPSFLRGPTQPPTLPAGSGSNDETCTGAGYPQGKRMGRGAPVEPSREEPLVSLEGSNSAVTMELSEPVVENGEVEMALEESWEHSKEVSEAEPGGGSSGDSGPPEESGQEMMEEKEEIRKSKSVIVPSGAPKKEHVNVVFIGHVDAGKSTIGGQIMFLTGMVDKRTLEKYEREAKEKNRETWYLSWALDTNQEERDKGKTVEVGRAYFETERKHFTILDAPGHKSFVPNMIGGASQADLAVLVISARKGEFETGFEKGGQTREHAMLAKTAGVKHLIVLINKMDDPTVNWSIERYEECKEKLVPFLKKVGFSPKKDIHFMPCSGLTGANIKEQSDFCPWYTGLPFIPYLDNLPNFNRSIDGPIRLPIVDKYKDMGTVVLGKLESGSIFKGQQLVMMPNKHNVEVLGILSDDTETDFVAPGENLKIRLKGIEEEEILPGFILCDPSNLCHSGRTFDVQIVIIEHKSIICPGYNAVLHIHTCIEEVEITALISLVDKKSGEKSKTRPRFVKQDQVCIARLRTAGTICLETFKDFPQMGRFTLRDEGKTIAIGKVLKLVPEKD
# PHAX, Q9H814, UniProt Q9H814, whole entry: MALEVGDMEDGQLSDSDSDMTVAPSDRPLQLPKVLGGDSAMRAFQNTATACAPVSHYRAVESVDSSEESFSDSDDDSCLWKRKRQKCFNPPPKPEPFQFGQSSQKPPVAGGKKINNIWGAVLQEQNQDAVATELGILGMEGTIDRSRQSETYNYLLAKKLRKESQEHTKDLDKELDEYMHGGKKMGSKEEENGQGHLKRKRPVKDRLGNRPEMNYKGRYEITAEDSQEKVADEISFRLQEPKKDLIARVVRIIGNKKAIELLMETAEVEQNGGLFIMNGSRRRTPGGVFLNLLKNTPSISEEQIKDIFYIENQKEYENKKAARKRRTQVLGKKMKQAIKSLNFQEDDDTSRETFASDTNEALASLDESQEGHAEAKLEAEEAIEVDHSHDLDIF
# PRKAR2A, P13861, UniProt P13861, whole entry: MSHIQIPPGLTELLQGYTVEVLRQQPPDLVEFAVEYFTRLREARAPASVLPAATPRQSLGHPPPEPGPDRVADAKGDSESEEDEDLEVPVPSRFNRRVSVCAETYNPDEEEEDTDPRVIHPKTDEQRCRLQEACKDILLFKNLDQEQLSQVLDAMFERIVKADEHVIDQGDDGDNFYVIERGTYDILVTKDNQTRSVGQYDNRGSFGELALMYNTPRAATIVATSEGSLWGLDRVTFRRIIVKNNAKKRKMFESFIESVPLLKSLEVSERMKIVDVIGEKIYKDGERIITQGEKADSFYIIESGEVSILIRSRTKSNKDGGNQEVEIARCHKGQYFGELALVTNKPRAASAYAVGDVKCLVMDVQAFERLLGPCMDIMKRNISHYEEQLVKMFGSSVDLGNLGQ
# MPG, P29372, UniProt P29372, whole entry: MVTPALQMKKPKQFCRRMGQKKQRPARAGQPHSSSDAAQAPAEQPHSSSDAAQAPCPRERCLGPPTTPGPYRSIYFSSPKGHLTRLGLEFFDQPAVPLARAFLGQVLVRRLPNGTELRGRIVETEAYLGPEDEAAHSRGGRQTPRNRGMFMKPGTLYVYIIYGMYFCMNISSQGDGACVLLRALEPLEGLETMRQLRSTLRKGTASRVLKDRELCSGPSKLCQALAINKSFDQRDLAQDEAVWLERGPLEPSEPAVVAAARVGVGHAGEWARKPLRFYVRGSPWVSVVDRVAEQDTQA
# PSMC6, P62333, UniProt P62333, whole entry: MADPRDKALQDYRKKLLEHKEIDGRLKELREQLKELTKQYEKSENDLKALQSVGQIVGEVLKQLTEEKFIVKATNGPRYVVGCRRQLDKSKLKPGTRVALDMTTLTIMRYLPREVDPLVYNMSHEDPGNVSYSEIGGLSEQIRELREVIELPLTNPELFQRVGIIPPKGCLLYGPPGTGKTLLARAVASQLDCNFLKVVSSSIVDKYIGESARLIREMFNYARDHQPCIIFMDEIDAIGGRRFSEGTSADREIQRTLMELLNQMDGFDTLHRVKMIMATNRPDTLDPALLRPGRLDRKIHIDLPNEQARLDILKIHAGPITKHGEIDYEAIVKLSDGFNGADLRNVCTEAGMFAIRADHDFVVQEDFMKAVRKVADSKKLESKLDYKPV
# The list shows a part of the results. Only hits are listed; about a third recur on repeated control peptides.
# Experiments:
# Assay in all cases: PRISMA enrichment of interactor (LFQ) in peptide spot vs all other peptide spots (log2 fold change); higher = stronger / more specific binding of the interactor to the peptide
# [1] = target: ACAA2, P42765
# Description: (§1)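 PRISMA: 15-aa overlapping tiles (offset 8 aa) of 60 microproteins, plus SOS1/GLUT1 control peptides, were spot-synthesized on cellulose membranes in triplicate. Membranes were incubated with benzonase-treated HEK293T lysate, and bound proteins were identified by LC-MS/MS with LFQ. Enrichment is the log2 fold change of each protein in one spot versus all other spots. Only interactors passing the significance cutoff are listed.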
# [2] = target: ACTA1, P68133
# Description: as §1
# [3] = target: ARL6, Q9H0F7
# Description: as §1
# [4] = target: CNIH4, Q9P003
# Description: as §1
# [5] = target: COG3, Q96JB2
# Description: as §1
# [6] = target: EIF1, P41567
# Description: as §1
# [7] = target: FKBP8, Q14318
# Description: as §1
# [8] = target: HAX1, O00165
# Description: as §1
# [9] = target: IGHMBP2, P38935
# Description: as §1
# [10] = target: MRPL27, Q9P0M9
# Description: as §1
# [11] = target: MSI1, O43347
# Description: as §1
# [12] = target: PPP2R5D, Q14738
# Description: as §1
# [13] = target: ABCF3, Q9NUQ8
# Description: as §1
# [14] = target: BCKDK, O14874
# Description: as §1
# [15] = target: CLTA, P09496
# Description: as §1
# [16] = target: CMC2, Q9NRP2
# Description: as §1
# [17] = target: DDX49, Q9Y6V7
# Description: as §1
# [18] = target: DSP, P15924
# Description: as §1
# [19] = target: EMG1, Q92979
# Description: as §1
# [20] = target: FAM168A, Q92567
# Description: as §1
# [21] = target: FOXO3, O43524
# Description: as §1
# [22] = target: GSPT2, Q8IYD1
# Description: as §1
# [23] = target: MTCH2, Q9Y6C9
# Description: as §1
# [24] = target: NCOA5, Q9HCD5
# Description: as §1
# [25] = target: P4HB, P07237
# Description: as §1
# [26] = target: PHAX, Q9H814
# Description: as §1
# [27] = target: PPM1G, O15355
# Description: as §1
# [28] = target: PRKAR2A, P13861
# Description: as §1
# [29] = target: SREK1, Q8WXA9
# Description: as §1
# [30] = target: ZC3H15, Q8WU90
# Description: as §1
# [31] = target: BZW2, Q9Y6E2
# Description: as §1
# [32] = target: DHTKD1, Q96HY7
# Description: as §1
# [33] = target: DTNA, Q9Y4J8
# Description: as §1
# [34] = target: NOC4L, Q9BVI4
# Description: as §1
# [35] = target: RER1, O15258
# Description: as §1
# [36] = target: ABT1, Q9ULW3
# Description: as §1
# [37] = target: FASTKD5, Q7L8L6
# Description: as §1
# [38] = target: GRB2, P62993
# Description: as §1
# [39] = target: MPG, P29372
# Description: as §1
# [40] = target: MRPL13, Q9BYD1
# Description: as §1
# [41] = target: PSMC6, P62333
# Description: as §1
# [42] = target: RRP36, Q96EU6
# Description: as §1
# [43] = target: SF3A1, Q15459
# Description: as §1
# [44] = target: SSR1, P43307
# Description: as §1
# [45] = target: WDR46, O15213
# Description: as §1
binder,measurement,setting,value
MASLDFFLWRLDSKI [RP3-332B22.1],PRISMA enrichment of interactor (log2),[1],8.93
same,PRISMA enrichment of interactor (log2),[2],5.51
same,PRISMA enrichment of interactor (log2),[3],3.98
same,PRISMA enrichment of interactor (log2),[4],4.74
same,PRISMA enrichment of interactor (log2),[5],4.28
same,PRISMA enrichment of interactor (log2),[6],4.93
same,PRISMA enrichment of interactor (log2),[7],4.06
same,PRISMA enrichment of interactor (log2),[8],4.48
same,PRISMA enrichment of interactor (log2),[9],5.92
same,PRISMA enrichment of interactor (log2),[10],7.43
same,PRISMA enrichment of interactor (log2),[11],5.17
same,PRISMA enrichment of interactor (log2),[12],5.04
DFLTSSPDHREFLST [NAV2-AS2_2],PRISMA enrichment of interactor (log2),[13],3.89
same,PRISMA enrichment of interactor (log2),[14],4.7
same,PRISMA enrichment of interactor (log2),[15],5.59
same,PRISMA enrichment of interactor (log2),[16],6.82
same,PRISMA enrichment of interactor (log2),[17],5.27
same,PRISMA enrichment of interactor (log2),[18],4.69
same,PRISMA enrichment of interactor (log2),[19],5.21
same,PRISMA enrichment of interactor (log2),[20],6.81
same,PRISMA enrichment of interactor (log2),[21],4.52
same,PRISMA enrichment of interactor (log2),[22],4.86
same,PRISMA enrichment of interactor (log2),[23],4.88
same,PRISMA enrichment of interactor (log2),[24],4.24
same,PRISMA enrichment of interactor (log2),[25],4.59
same,PRISMA enrichment of interactor (log2),[26],9.47
same,PRISMA enrichment of interactor (log2),[27],5.06
same,PRISMA enrichment of interactor (log2),[28],4.22
same,PRISMA enrichment of interactor (log2),[29],4.63
same,PRISMA enrichment of interactor (log2),[30],4.73
AAEFYSRGRKQRRPS [LINC01560],PRISMA enrichment of interactor (log2),[1],4.57
same,PRISMA enrichment of interactor (log2),[31],5.89
same,PRISMA enrichment of interactor (log2),[32],9.15
FRLFHWLTFRLLTLL [CTD-2366F13.1],PRISMA enrichment of interactor (log2),[1],5.76
same,PRISMA enrichment of interactor (log2),[4],4.41
same,PRISMA enrichment of interactor (log2),[33],6.21
same,PRISMA enrichment of interactor (log2),[34],4.51
same,PRISMA enrichment of interactor (log2),[35],4.53
RAAAYAFAIRRGVVR [TUG1],PRISMA enrichment of interactor (log2),[36],4.28
same,PRISMA enrichment of interactor (log2),[37],6.18
same,PRISMA enrichment of interactor (log2),[38],5.05
same,PRISMA enrichment of interactor (log2),[39],5.16
same,PRISMA enrichment of interactor (log2),[40],8.82
same,PRISMA enrichment of interactor (log2),[41],5.46
same,PRISMA enrichment of interactor (log2),[42],5.21
same,PRISMA enrichment of interactor (log2),[43],5.4
same,PRISMA enrichment of interactor (log2),[44],7.51
same,PRISMA enrichment of interactor (log2),[45],5.3

# Some of the entries so far, with bars between the fields.
binder | measurement | setting | value
DFLTSSPDHREFLST [NAV2-AS2_2] | PRISMA enrichment of interactor (log2) | [23] | 4.88
same | PRISMA enrichment of interactor (log2) | [24] | 4.24
same | PRISMA enrichment of interactor (log2) | [25] | 4.59
same | PRISMA enrichment of interactor (log2) | [26] | 9.47
same | PRISMA enrichment of interactor (log2) | [27] | 5.06
same | PRISMA enrichment of interactor (log2) | [28] | 4.22
same | PRISMA enrichment of interactor (log2) | [29] | 4.63
same | PRISMA enrichment of interactor (log2) | [30] | 4.73
AAEFYSRGRKQRRPS [LINC01560] | PRISMA enrichment of interactor (log2) | [1] | 4.57
